## Results of single-concentration screens

Mtb glucose medium: 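Whole-cell growth test on Mycobacterium tuberculosis, read after 3 days in glucose-containing 7H9 medium; the read-out is not stated. Concentration: 500 µM. Higher reads as more growth inhibition (inferred: compounds with an IC50 in retests scored well above the rest). Of about 18,000 compounds tested this way, about 1,400 (7.9%) reached 50% or more in at least one test.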
Mtb cholesterol medium: 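Whole-cell growth test on Mycobacterium tuberculosis, read after 4 days in a medium based on cholesterol and the lipid DPPC; the read-out is not stated. Compounds at 500 µM. The record gives no direction; compounds that gave an IC50 in retests scored well above the rest, so higher reads as more growth inhibition. About 18,000 compounds were tested under these conditions; 5% (about 900) showed 50% or more at least once.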

The filed quantity is “Percent Effect” (%). The record does not define 0% and 100%; most values in the screen are far below 50% and negative numbers occur (in some assays of this library far below -100). This is an unselected part of the compounds tested.

{"smiles": "NC(=O)c1ccc(OCC(=O)c2ccccc2F)cc1", "Mtb glucose medium": 47.35, "Mtb cholesterol medium": 39.61}
{"smiles": "Cc1ccnc(NCCn2ccnc2-c2ncc[nH]2)c1", "Mtb glucose medium": 31.21, "Mtb cholesterol medium": 8.341}
{"smiles": "CCn1ncnc1CN1CCC(CN)C1", "stereo": "centres undefined", "Mtb glucose medium": 0.3333, "Mtb cholesterol medium": 3.737}
{"smiles": "CCC(O)(CC)CCN", "Mtb glucose medium": 4.718, "Mtb cholesterol medium": -6.847}
{"smiles": "COCC1(C(=O)N2C[C@@H](N)C[C@H]2C(=O)NC(C)C)CC1", "Mtb glucose medium": 6.274, "Mtb cholesterol medium": 6.181}
{"smiles": "CCN1CC(CN)OC1=O", "stereo": "centres undefined", "Mtb glucose medium": -7.998, "Mtb cholesterol medium": -13.65}
{"smiles": "NCc1ccc(C(=O)NCCN2CCCC2)cc1", "Mtb glucose medium": -8.209, "Mtb cholesterol medium": -6.029}
{"smiles": "Cc1c(NC(N)=O)c(=O)n(-c2ccccc2)n1C", "Mtb glucose medium": -10.74, "Mtb cholesterol medium": -8.207}
{"smiles": "O=C1NCCNC1c1c(F)cccc1Cl", "stereo": "centres undefined", "Mtb glucose medium": 6.146, "Mtb cholesterol medium": 4.309}
{"smiles": "CCCN(CCO)CC(=O)N1CCCC(C)C1", "stereo": "centres undefined", "Mtb glucose medium": 8.167, "Mtb cholesterol medium": 73.21}
{"smiles": "O=C(CC1CCNC1)N1CCC(c2ncc[nH]2)CC1", "stereo": "centres undefined", "Mtb glucose medium": -0.5045, "Mtb cholesterol medium": -6.056}
{"smiles": "CS(=O)(=O)NCCNC(=O)c1ccc2ccccc2n1", "Mtb glucose medium": 28.18, "Mtb cholesterol medium": -14.26}
{"smiles": "CN(C)C[C@@H]1[C@H]2CN(Cc3cccnc3)C[C@@H]12", "Mtb glucose medium": 9.552, "Mtb cholesterol medium": 3.13}
{"smiles": "CN(CC(N)=O)Cc1cccc(C#N)c1", "Mtb glucose medium": 13.48, "Mtb cholesterol medium": 18.5}
{"smiles": "CC(C)CN1CCN(c2ccc(C(N)=O)nn2)CC1", "Mtb glucose medium": -1.97, "Mtb cholesterol medium": -4.763}
{"smiles": "CCC1=NOC(CNC(=O)c2cc(=O)c(OC)c[nH]2)C1", "stereo": "centres undefined", "Mtb glucose medium": 13.18, "Mtb cholesterol medium": 12.55}
{"smiles": "CCCNC(=O)C(C)NC(=O)c1ccc(F)cc1", "stereo": "centres undefined", "Mtb glucose medium": 38.32, "Mtb cholesterol medium": 32.45}
{"smiles": "Cc1cc(NC(=O)NCC2CCN(C(C)C)C2)n(C)n1", "stereo": "centres undefined", "Mtb glucose medium": -0.5397, "Mtb cholesterol medium": -2.987}
{"smiles": "CC(C)CC1C(=O)NCCN1C(=O)Nc1ccncc1", "stereo": "centres undefined", "Mtb glucose medium": 3.761, "Mtb cholesterol medium": -10.95}
{"smiles": "CC(=O)Nc1cccc(-n2nnnc2SCC#N)c1", "Mtb glucose medium": 4.076, "Mtb cholesterol medium": -19.65}
{"smiles": "CO[C@@H]1COCC[C@H]1NC(=O)c1ccncc1Cl", "Mtb glucose medium": 8.262, "Mtb cholesterol medium": 1.733}
{"smiles": "COCc1nn(Cc2cccc3cccnc23)c(=O)o1", "Mtb glucose medium": 69.38, "Mtb cholesterol medium": 72.34}
{"smiles": "CC(=O)c1ccc(C(=O)NCC(C)N2CCCC2)s1", "stereo": "centres undefined", "Mtb glucose medium": 24.2, "Mtb cholesterol medium": 8.656}
{"smiles": "CCSCc1ccc(C(=O)NCCCOCCO)cc1", "Mtb glucose medium": 41.32, "Mtb cholesterol medium": 13.31}
{"smiles": "Cc1cc(C(=O)N2CCN(C(=O)C3CC3)CC2)c(C)o1", "Mtb glucose medium": 3.466, "Mtb cholesterol medium": 10.17}
{"smiles": "CS(=O)(=O)Nc1ccccc1CNC(=O)c1ccoc1", "Mtb glucose medium": 10.69, "Mtb cholesterol medium": -0.866}
{"smiles": "Cc1cccc(S(=O)(=O)NC2CCNC2)c1C#N", "stereo": "centres undefined", "Mtb glucose medium": 13.04, "Mtb cholesterol medium": -2.852}
{"smiles": "CNc1cc(C(=O)NCC(OC)c2cccs2)ccn1", "stereo": "centres undefined", "Mtb glucose medium": 50.74, "Mtb cholesterol medium": 14.59}
{"smiles": "NC(=O)C1CCN(C(=O)C2CCCO2)CC1", "stereo": "centres undefined", "Mtb glucose medium": -9.541, "Mtb cholesterol medium": -17.85}
{"smiles": "COC(=O)NC(C)C(=O)NCCNc1ncccc1C", "stereo": "centres undefined", "Mtb glucose medium": 10.66, "Mtb cholesterol medium": 5.349}
{"smiles": "N#CCc1c[nH]c2ccc(C(N)=O)cc12", "Mtb glucose medium": -1.843, "Mtb cholesterol medium": -11.63}
{"smiles": "Cc1c(C(=O)NC(C)C(N)=O)sc2cccc(F)c12", "stereo": "centres undefined", "Mtb glucose medium": 2.415, "Mtb cholesterol medium": -3}
{"smiles": "CN(C(=O)C(N)CCS(C)(=O)=O)C1CCOCC1", "stereo": "centres undefined", "Mtb glucose medium": 15.94, "Mtb cholesterol medium": 0.4131}
{"smiles": "COC(=O)c1cn(CC(=O)Nc2cccc(F)c2)nn1", "Mtb glucose medium": 4.753, "Mtb cholesterol medium": -21.41}
{"smiles": "COCC(O)CNc1nc(CC(C)C)ns1", "stereo": "centres undefined", "Mtb glucose medium": 28.22, "Mtb cholesterol medium": 19.09}
{"smiles": "COCc1nn(CCn2cc(Br)cn2)c(=O)o1", "Mtb glucose medium": 41.83, "Mtb cholesterol medium": 45.38}
{"smiles": "CO[C@H]1CNCC1NC(=O)Cc1nc(C)sc1C", "stereo": "some centres undefined", "Mtb glucose medium": 0.3226, "Mtb cholesterol medium": -5.488}

Measurements from “University of Dundee, Small-Polar-MMV Screening Library” (2021), ChEMBL document CHEMBL3988442.